These are yes or no findings as the source states them, for the method shown. Binding seen in cells or lysates may run through a third protein. Some binding calls cover weakened binding; strength is not graded here. Sequences can lack the tags named with a protein.
B1: Serum- and glucocorticoid-inducible kinase 2 (enzyme, UniProt Q9HBY8 1-367)
chain: MNSSPAGTPSPQPSRANGNINLGPSANPNAQPTDFDFLKVIGKGNYGKVLLAKRKSDGAFYAVKVLQKKSILKKKEQSHIMAERSVLLKNVRHPFLVGLRYSFQTPEKLYFVLDYVNGGELFFHLQRERRFLEPRARFYAAEVASAIGYLHSLNIIYRDLKPENILLDCQGHVVLTDFGLCKEGVEPEDTTSTFCGTPEYLAPEVLRKEPYDRAVDWWCLGAVLYEMLHGLPPFYSQDVSQMYENILHQPLQIPGGRTVAACDLLQSLLHKDQRQRLGSKADFLEIKNHVFFSPINWDDLYHKRLTPPFNPNVTGPADLKHFDPEFTQEAVSKSIGCTPDTVASSSGASSAFLGFSYAPEDDDILDC
B2: SGK2 stably overexpressed in OVCAR8 cells (EGFP-SGK2) (enzyme, UniProt Q9HBY8 1-367)
chain: B1 chain

The chains behind the UniProt entries cited, without tags or fusion partners. Where a name states a change or a piece, a line headed by the entry shows the natural chain unless it says otherwise.
UniProt Q9UI12: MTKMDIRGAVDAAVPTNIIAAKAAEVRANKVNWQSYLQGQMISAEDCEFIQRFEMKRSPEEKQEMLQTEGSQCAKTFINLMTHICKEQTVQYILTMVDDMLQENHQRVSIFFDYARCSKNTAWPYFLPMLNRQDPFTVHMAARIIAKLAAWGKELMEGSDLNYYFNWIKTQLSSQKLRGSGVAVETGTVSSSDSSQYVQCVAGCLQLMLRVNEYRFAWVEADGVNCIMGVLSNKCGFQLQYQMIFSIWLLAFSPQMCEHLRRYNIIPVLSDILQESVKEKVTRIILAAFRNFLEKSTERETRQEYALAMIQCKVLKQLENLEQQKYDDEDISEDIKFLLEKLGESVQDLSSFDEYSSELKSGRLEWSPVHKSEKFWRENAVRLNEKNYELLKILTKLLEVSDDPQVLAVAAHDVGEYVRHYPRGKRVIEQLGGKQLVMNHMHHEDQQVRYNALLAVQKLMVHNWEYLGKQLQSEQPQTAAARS
UniProt Q13488: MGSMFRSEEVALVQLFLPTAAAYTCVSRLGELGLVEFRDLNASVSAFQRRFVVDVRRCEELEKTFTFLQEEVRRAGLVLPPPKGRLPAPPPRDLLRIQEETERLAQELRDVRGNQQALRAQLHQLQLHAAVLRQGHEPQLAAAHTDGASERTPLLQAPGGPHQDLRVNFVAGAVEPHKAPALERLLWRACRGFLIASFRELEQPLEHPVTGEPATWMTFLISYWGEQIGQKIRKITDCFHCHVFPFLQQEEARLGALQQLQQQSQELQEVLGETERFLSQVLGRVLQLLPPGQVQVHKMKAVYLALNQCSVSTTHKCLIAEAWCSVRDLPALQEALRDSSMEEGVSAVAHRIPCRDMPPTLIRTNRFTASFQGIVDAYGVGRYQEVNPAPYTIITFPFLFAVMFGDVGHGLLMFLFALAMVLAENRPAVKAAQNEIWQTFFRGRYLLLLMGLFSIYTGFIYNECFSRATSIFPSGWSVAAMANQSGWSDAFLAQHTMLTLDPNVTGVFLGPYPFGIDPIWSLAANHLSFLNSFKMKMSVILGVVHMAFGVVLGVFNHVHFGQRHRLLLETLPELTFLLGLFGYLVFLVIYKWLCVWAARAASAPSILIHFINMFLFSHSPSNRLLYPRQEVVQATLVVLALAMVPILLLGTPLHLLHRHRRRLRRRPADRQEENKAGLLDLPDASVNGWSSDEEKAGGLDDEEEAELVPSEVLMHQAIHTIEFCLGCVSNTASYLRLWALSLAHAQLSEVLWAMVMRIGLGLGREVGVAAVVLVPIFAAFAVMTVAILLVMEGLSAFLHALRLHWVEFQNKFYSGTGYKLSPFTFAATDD

Columns and labels:
[1] = target: V-ATPase subunit V1H (ATP6V1H) (human (endogenous in MDAH-2774 and OVCAR8)) (UniProt Q9UI12); test: co-IP; 1 mg lysate of MDAH cells (untreated or treated with GSK650394 35 uM for 16 and 24 h) precipitated with anti-ATP6V1H antibody in HNTG buffer (20 mM HEPES, 150 mM NaCl, 10% glycerol, 0.1% Triton X-100), overnight at 4 C, protein A and G beads; blots for ATP6V1H, SGK2 and ATP6V0A3; all proteins endogenous
[2] = target: V-ATPase subunit V1H (ATP6V1H) (human (endogenous in MDAH-2774 and OVCAR8)) (UniProt Q9UI12); test: co-IP; lysate of OVCAR8 cells stably overexpressing SGK2 (or empty vector) precipitated with anti-ATP6V1H antibody in HNTG buffer, overnight at 4 C, protein A and G beads; blots for ATP6V1H, SGK2 and ATP6V0A3

Molecule | binding [1] | binding [2]
V-ATPase subunit V0A3 (ATP6V0A3) (from UniProt Q13488 1-830) | binds | binds
B1 | binds | 
B2 |  | binds

Reference: article PMC7529585
